Measured data: PubChem BioAssay AID1508588 (Peter MacCallum Cancer Centre, 2020)

Screen: 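Knock-downs boosting vemurafenib effects on melanoma cell growth or lactate release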 (primary screen)
Cells: human WM266.4 melanoma cells (BRAF V600 mutant)
Reagent: siRNA pool against human genes, 40 nM
Time to read-out: 96 h from transfection to read-out
Challenge: vemurafenib 300 nM (about IC25), added 48 h after transfection, for 48 h; comparison arm got DMSO vehicle only
Measurement: 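Ratios to non-targeting siRNA for cell gain, counted as DAPI nuclei after minus before drug and averaged over two replicates, and for absorbance-read medium lactate per cell; both binned into fold-change classes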
Direction: cell gain with vemurafenib: higher = more cell gain than with non-targeting siRNA; lactate per cell with vemurafenib: higher = more lactate made per cell
Call rule: 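a knock-down counts as enhancing when its fold-change classes with vehicle and with vemurafenib, taken together, show a stronger drug effect on cell gain or lactate per cell; exact class pairs not stated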
Meaning of the calls: active = enhances vemurafenib effect; inactive = no enhancement seen
The whole screen tested about 18,000 reagents; this is an unselected part. 790 of them (4.4%) count as active. 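Calls rest on a combination of fold-change classes in drug and vehicle arms, not all shown here.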 Unmarked entries are inactive. Some reagents were tested in more than one well and are listed for each.

no.	Gene	cell gain with vemurafenib	lactate per cell with vemurafenib
1	SPATA25 (spermatogenesis associated 25)	0.69	0.54
2	DENND5B (DENN domain containing 5B)	0.49	1.4
3	WT1-AS (WT1 antisense RNA)	0.5	1.25
4	PI4K2B (phosphatidylinositol 4-kinase type 2 beta)	0.64	1.19
5	HLA-DPA1 (major histocompatibility complex, class II, DP alpha 1)	0.68	0.82
6	FAR1 (fatty acyl-CoA reductase 1)	0.21 (active)	0.08
7	RNF220 (ring finger protein 220)	0.37	0.85
8	TAF4B (TATA-box binding protein associated factor 4b)	0.56	0.64
9	FGG (fibrinogen gamma chain)	0.47	1.12
10	NOP2 (NOP2 nucleolar protein)	0.09	1.59
11	DRC9 (dynein regulatory complex subunit 9)	0.58	0.96
12	RPS4Y1 (ribosomal protein S4 Y-linked 1)	0.51	0.51
13	LMTK3 (lemur tail kinase 3)	0.15	1.02
14	LMTK3 (lemur tail kinase 3)	0.51	0.88
15	MBD3L2 (methyl-CpG binding domain protein 3 like 2)	0.73	0.93
16	SRSF4 (serine and arginine rich splicing factor 4)	0.6	0.67
17	SOX15 (SRY-box transcription factor 15)	0.91	0.85
18	REEP4 (receptor accessory protein 4)	0.33	0.48
19	RTCB (RNA 2',3'-cyclic phosphate and 5'-OH ligase)	0.8	0.88
20	HUS1 (HUS1 checkpoint clamp component)	0.75	1.26
21	SPTBN1 (spectrin beta, non-erythrocytic 1)	0.43	1.58
22	EGFL7 (EGF like domain multiple 7)	0.22	2.15
23	CNTNAP3 (contactin associated protein family member 3)	0.34	1.13
24	NUBP1 (NUBP iron-sulfur cluster assembly factor 1, cytosolic)	0.74	0.8
25	SLC13A3	0.98	0.6
26	CSRNP3 (cysteine and serine rich nuclear protein 3)	0.63	1.21
27	ESF1 (ESF1 nucleolar pre-rRNA processing protein)	0.69	0.8
28	DMWD (DM1 locus, WD repeat containing)	1.15	0.7
29	IP6K3 (inositol hexakisphosphate kinase 3)	0.61	0.86
30	C2CD5 (C2 calcium dependent domain containing 5)	0.53	1.05
31	TXNDC11 (thioredoxin domain containing 11)	0.24	1.4
32	HOXB4 (homeobox B4)	0.94	1.01
33	CASC3 (CASC3 exon junction complex subunit)	0.71	0.1
34	PTH2 (parathyroid hormone 2)	0.37	0.54
35	ZNF707 (zinc finger protein 707)	0.81	1.05
36	DMRTC1B (DMRT like family C1B)	0.04 (active)	0.55
37	GPR26 (G protein-coupled receptor 26)	0.48	0.88
38	H1-2 (H1.2 linker histone, cluster member)	0.36	1.23
39	RTP5 (receptor transporter protein 5 (putative))	0.71	1.01
40	MROH2B (maestro heat like repeat family member 2B)	0.24	1.99
41	RNF121 (ring finger protein 121)	1.11	0.76
42	OR4B1 (olfactory receptor family 4 subfamily B member 1)	0.81	0.72
43	OCLN (occludin)	0.58	1.21
44	OR10AG1 (olfactory receptor family 10 subfamily AG member 1)	0.5	1.34
45	CCDC87 (coiled-coil domain containing 87)	0.66	0.67
46	FREY1 (Frey regulator of sperm-oocyte fusion 1)	0.25	1.35
47	CCN2 (cellular communication network factor 2)	0.66	1.14
48	WHRN (whirlin)	0.65	1.1
49	ADCK1 (aarF domain containing kinase 1)	0.69	1.08
50	TM2D2 (TM2 domain containing 2)	0.64	0.82
51	SEPHS1 (selenophosphate synthetase 1)	0.66	1.29
52	MIPEP (mitochondrial intermediate peptidase)	0.96	0.68
53	CLN3 (CLN3 lysosomal/endosomal transmembrane protein, battenin)	0.39	1.9
54	OR3A2 (olfactory receptor family 3 subfamily A member 2)	0.88	0.6
55	RBMS2 (RNA binding motif single stranded interacting protein 2)	0.31	1.1
56	KAZN (kazrin, periplakin interacting protein)	0.75	0.74
57	TTLL6 (tubulin tyrosine ligase like 6)	0.54	1.44
58	ERICH5 (glutamate rich 5)	0.6	1
59	RASSF6 (Ras association domain family member 6)	0.72	0.74
60	TMEM67 (transmembrane protein 67)	0.91	0.32
61	IMPG2 (interphotoreceptor matrix proteoglycan 2)	0.54	0.84
62	FCGR2C (Fc gamma receptor IIc (gene/pseudogene))	0.33	1.72
63	ZNF19 (zinc finger protein 19)	0.47	2.8
64	FYTTD1 (forty-two-three domain containing 1)	1	0.68
65	NXNL2 (nucleoredoxin like 2)	0.51	1.64
66	PPIL4 (peptidylprolyl isomerase like 4)	0.19	1.51
67	TYRP1 (tyrosinase related protein 1)	1.14	0.55
68	ARHGEF12 (Rho guanine nucleotide exchange factor 12)	0.25	0.77
69	SLC26A7	0.75	0.82
70	SS18L2 (SS18 like 2)	0.22	1.64
71	IFIT3 (interferon induced protein with tetratricopeptide repeats 3)	0.8	1.21
72	LRRIQ1 (leucine rich repeats and IQ motif containing 1)	1.65	0.77
73	COXFA4 (cytochrome c oxidase associated subunit FA4)	0.87	1.38
74	DNAJB14 (DnaJ heat shock protein family (Hsp40) member B14)	0.85	0.84
75	AIP (AHR interacting HSP90 co-chaperone)	0.72	0.45
76	VRTN (vertebrae development associated)	0.7	0.34
77	SAA2 (serum amyloid A2)	0.82	1.2
78	ZBTB44 (zinc finger and BTB domain containing 44)	1.05	0.77
79	BLOC1S4 (biogenesis of lysosomal organelles complex 1 subunit 4)	0.59	1.4
80	INTS5 (integrator complex subunit 5)	0.16	1.46
81	C1R (complement C1r)	0.5	0.64
82	TTC33 (tetratricopeptide repeat domain 33)	0.49	0.52
83	STIP1 (stress induced phosphoprotein 1)	0.91	1.29
84	HABP4 (hyaluronan binding protein 4)	0.68	1.54
85	PDGFB (platelet derived growth factor subunit B)	0.83	0.97
86	COX15 (cytochrome c oxidase assembly factor COX15)	0.39	1.25
87	LAMC1 (laminin subunit gamma 1)	0.8	0.45
88	SOX21 (SRY-box transcription factor 21)	0.89	0.68
89	USP50 (ubiquitin specific peptidase 50)	0.64	1.18
90	MICU2 (mitochondrial calcium uptake 2)	0.59	0.61
91	CAPS (calcyphosine)	0.36	1.43
92	MRPL4 (mitochondrial ribosomal protein L4)	0.14	2.03
93	HDAC10 (histone deacetylase 10)	0.55	1.4
94	IL2RG (interleukin 2 receptor subunit gamma)	0.79	0.5
95	VPS36 (vacuolar protein sorting 36 homolog)	0.66	0.76
96	NPVF (neuropeptide VF precursor)	0.51	0.41
97	P2RX6 (purinergic receptor P2X 6)	0.48	0.73
98	BCL7B (BAF chromatin remodeling complex subunit BCL7B)	0.63	1.43
99	WIPI1 (WD repeat domain, phosphoinositide interacting 1)	0.34	0.99
100	PDCD11 (programmed cell death 11)	0.31	1.36
101	OR8B2 (olfactory receptor family 8 subfamily B member 2)	0.69	0.78
102	LRRC57 (leucine rich repeat containing 57)	0.89	0.98
103	FOXN4 (forkhead box N4)	0.81	1.01
104	PRR19 (proline rich 19)	0.34	0.66
105	CYP2A13 (cytochrome P450 family 2 subfamily A member 13)	0.54	1
106	CROT (carnitine O-octanoyltransferase)	0.39	1.54
107	STX1B (syntaxin 1B)	0.69 (active)	0.47
